These are yes or no findings as the source states them, for the method shown. Binding seen in cells or lysates may run through a third protein. Some binding calls cover weakened binding; strength is not graded here.
Legend:
[1] = molecular target: T1, transient receptor potential C6 (TRPC6), endogenous in human platelets (human (endogenous in platelets)) (UniProt Q9Y210); assay: FRET or BRET; FRET/FLIM on human platelets stained with antibodies; Alexa Fluor 488 lifetime, excitation 488 nm, double exponential fit; estimates interactions within <=10 nm
T1 sequence: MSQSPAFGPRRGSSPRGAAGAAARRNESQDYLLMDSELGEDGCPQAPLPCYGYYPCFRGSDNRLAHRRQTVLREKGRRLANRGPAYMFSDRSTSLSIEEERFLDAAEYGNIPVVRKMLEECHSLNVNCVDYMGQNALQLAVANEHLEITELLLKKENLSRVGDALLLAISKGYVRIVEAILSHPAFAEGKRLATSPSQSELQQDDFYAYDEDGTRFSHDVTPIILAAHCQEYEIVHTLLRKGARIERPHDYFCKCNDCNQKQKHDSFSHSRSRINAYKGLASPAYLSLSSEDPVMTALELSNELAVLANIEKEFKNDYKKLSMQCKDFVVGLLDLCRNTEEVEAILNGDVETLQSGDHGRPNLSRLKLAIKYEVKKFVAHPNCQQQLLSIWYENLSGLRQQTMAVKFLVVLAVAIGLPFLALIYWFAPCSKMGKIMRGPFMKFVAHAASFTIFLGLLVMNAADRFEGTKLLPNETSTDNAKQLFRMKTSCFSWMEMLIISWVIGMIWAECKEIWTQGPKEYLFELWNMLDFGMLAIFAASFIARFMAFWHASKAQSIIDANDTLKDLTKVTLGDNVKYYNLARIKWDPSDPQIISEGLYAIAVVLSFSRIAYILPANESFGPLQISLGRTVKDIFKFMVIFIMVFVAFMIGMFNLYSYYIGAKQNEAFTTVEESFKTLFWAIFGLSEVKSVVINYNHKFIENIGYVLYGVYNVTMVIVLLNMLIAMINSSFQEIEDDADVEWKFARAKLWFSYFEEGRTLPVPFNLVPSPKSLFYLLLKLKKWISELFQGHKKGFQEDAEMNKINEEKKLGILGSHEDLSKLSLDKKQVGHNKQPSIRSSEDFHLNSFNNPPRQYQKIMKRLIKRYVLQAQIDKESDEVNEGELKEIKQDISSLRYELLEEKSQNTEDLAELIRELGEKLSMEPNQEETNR

Amino acid sequences for entries named in this document (tags omitted).
UniProt Q92508: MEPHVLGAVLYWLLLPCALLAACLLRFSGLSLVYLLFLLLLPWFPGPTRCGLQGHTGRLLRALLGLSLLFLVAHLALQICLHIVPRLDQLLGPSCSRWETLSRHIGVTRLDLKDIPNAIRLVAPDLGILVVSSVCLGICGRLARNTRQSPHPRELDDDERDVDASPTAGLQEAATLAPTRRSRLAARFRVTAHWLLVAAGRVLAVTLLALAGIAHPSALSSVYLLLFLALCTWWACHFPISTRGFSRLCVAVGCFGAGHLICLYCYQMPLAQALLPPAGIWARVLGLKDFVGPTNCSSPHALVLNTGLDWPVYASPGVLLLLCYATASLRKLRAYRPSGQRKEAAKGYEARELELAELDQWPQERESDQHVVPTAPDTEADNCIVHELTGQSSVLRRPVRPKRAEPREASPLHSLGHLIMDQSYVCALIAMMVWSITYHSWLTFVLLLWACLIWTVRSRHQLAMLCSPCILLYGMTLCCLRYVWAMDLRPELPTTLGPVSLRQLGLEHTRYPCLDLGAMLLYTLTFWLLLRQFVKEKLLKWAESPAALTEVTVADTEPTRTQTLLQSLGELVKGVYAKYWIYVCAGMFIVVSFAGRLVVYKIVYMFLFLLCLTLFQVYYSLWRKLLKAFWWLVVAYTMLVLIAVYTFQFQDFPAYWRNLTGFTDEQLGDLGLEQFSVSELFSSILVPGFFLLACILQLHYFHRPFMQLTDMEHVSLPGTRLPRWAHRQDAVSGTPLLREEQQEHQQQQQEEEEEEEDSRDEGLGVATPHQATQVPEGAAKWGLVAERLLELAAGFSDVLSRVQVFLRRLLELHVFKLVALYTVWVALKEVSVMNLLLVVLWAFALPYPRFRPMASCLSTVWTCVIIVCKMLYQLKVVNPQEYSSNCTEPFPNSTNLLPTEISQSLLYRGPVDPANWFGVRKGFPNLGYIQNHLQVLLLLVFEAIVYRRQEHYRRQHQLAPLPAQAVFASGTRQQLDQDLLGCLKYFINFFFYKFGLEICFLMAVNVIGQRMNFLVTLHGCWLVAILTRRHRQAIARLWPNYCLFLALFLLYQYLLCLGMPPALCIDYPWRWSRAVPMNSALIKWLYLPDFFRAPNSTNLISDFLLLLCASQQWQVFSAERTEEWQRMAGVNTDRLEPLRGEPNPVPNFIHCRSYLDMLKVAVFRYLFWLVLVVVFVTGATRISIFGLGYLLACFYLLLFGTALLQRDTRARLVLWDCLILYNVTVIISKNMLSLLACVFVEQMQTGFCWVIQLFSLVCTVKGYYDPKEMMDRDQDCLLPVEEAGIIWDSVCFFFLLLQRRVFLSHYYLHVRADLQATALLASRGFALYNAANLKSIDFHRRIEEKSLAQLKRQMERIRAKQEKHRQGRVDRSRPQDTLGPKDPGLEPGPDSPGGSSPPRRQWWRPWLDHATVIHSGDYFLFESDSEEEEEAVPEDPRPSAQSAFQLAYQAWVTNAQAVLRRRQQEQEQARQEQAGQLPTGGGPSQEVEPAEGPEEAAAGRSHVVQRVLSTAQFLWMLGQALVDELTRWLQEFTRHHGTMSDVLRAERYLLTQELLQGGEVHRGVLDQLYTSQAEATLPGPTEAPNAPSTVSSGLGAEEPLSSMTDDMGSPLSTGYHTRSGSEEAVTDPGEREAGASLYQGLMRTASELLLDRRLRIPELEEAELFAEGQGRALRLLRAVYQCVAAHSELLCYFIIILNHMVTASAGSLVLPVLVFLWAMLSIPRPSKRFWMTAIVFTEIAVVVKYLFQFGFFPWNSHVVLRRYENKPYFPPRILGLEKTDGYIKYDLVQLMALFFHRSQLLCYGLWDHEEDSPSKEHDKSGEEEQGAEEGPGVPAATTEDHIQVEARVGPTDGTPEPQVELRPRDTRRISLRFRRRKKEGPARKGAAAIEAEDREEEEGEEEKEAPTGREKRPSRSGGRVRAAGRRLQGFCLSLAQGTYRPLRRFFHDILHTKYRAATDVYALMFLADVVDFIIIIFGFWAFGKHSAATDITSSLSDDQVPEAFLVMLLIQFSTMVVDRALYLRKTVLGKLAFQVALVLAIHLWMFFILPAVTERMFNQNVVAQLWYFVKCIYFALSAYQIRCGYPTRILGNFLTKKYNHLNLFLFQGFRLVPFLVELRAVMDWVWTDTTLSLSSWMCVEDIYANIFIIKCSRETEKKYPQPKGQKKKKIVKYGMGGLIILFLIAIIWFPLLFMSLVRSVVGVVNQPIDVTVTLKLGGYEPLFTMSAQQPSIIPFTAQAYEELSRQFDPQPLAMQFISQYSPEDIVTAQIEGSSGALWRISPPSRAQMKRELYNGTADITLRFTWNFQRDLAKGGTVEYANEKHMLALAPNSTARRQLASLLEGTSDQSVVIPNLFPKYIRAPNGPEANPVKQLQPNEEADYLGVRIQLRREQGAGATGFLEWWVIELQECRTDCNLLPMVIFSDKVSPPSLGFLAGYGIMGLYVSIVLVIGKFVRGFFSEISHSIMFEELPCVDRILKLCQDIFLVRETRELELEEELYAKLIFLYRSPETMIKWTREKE

[2] = molecular target: Piezo1, endogenous in platelets (not stated (human or mouse platelets)) (UniProt Q92508); assay: FRET or BRET; FRET/FLIM in platelets; data not shown

binding [1]: binds
binding [2]: binds
B1: aquaporin-1 (AQP1), endogenous in human platelets (protein, UniProt P29972 1-269)
chain: MASEFKKKLFWRAVVAEFLATTLFVFISIGSALGFKYPVGNNQTAVQDNVKVSLAFGLSIATLAQSVGHISGAHLNPAVTLGLLLSCQISIFRALMYIIAQCVGAIVATAILSGITSSLTGNSLGRNDLADGVNSGQGLGIEIIGTLQLVLCVLATTDRRRRDLGGSAPLAIGLSVALGHLLAIDYTGCGINPARSFGSAVITHNFSNHWIFWVGPFIGGALAVLIYDFILAPRSSDLTDRVKVWTSGQVEEYDLDADDINSRVEMKPK

Source: publication PMC6012506
